{"sequences": {"note": "Chains of the proteins cited; added tags and fusions are not shown. Residues count along the entry.", "UniProt Q9EP73, 19-290": "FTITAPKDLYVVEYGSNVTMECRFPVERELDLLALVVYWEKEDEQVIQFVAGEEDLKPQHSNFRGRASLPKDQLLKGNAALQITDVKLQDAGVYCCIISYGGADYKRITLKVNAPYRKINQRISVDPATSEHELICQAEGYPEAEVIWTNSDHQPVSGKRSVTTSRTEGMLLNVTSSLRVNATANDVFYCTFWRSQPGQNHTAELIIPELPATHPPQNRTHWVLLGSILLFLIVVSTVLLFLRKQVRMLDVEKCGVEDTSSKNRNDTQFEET"}, "source": "paper PMC11169524", "target": "PD-L1 on B16F10 melanoma cells (endogenous) (mouse (B16F10 cells)) (UniProt Q9EP73)", "test": "flow cytometry (cell binding)", "conditions": "170 nM aptamer, B16F10/splenocyte 1:10 mix, 5% BSA, 410% higher on B16F10 than splenocytes; 3' cholesterol (per Supplementary Table 1); Flow cytometry on cells: 170 nM aptPD-L1-FAM or 360 nM eCpG-FAM, 30 min with 5% BSA, PBS wash; pH and temperature not stated; DC assay conditions not given; protein on the cell surface; label: 5' FAM; single-stranded DNA", "note": "For at least one entry, the source does not settle the construct or the ends of the probe. At least one result comes from cells or an extract, where the contact may be indirect. At least one verdict was read from the data and is not stated in words by the source.", "data": [{"sequence": "CCAACGGTCCATGTGTTCAGACGAGACGAACTTATGCGTATACATTGTCACTCCCCGCCATTTTTT [FAM-aptPD-L1-Chol]", "values": [{"measurement": "binding result", "result": "binds"}]}]}
